From patent US11467161B2, “Biomarkers of therapeutic responsiveness” (Meso Scale Technologies, LLC., priority 2013, dated 2022)
At least one compound was matched to its structure with a doubt left.

Key:
VEGF = assay: Plasma VEGF in renal cell carcinoma patients; type: in vivo, human; conditions: plasma of RCC patients who had received sunitinib treatment
786-0 xenograft = assay: Biomarker levels in 786-0 RCC xenograft tumor extracts (MSD multiplex immunoassay); type: in vivo, mice
Procedure: (§1) A panel of biomarkers was measured in Melanoma and RCC xenograft tissue extracts from mice, described in Table 4. Xenografts were generated using the listed melanoma and RCC cell lines, and tumors harvested and extracted following the indicated treatments. SKMEL5 cells were used with or without transfection to express constitutively active GSK3β. A375 cells were used with or without transfection to express GSK3β specific shRNA under a doxycycline-controlled promoter.
(§2) Multiplex immunoassay kits were used for detection of total and/or phosphorylated biomarkers (supplied by Meso Scale Discovery, a division of Meso Scale Diagnostics, LLC, Rockville, Md.). Levels of each biomarker were determined by calibration of the assays with were either purified calibrator proteins or using control cell lysates from appropriately treated cultured cell lines (e.g., cells subjected to conditions known to induce or reduce levels of a specific biomarker). Calibration curves were derived by testing serial dilutions of the calibrator lysates or purified proteins. Levels of biomarkers in test samples were back-calculated from the calibration curves and were expressed in terms of wt. (or arbitrary Units for phospho-protein markers) of protein per weight of tissue extract (for purified calibrators) or in terms of weight of crude control lysate protein per well (for lysate calibrators). Titrations of tumor extracts were carried out to determine the linearity of the assay response to sample dilution and to select the sample dilution that would be appropriate to use for each assay panel.
In general, the assay format was as follows, with minor alterations for specific assay panels as indicated in the assay protocols provided with each assay kit (supplied by Meso Scale Discovery, Rockville, Md.): (1) block MSD MULTI-SPOT® plate for 1 hour with appropriate MSD® blocking solution and wash; (2) add 25 μl assay diluent to each well, if specified; (3) add 25 μl calibrator, or sample (diluted as appropriate) to each well; (4) incubate with shaking for 1-3 hours (time as specified) and wash the well; (5) add 25 μl labeled detection antibody solution to each well; (6) incubate with shaking for 1-2 hours (time as specified) and wash the well; (7) add 150 μl MSD read buffer to each well; (8) read plate immediately on MSD SECTOR® Imager 6000 Reader (supplied by Meso Scale Discovery, Rockville, Md.).
Tumor tissue extracts were assayed at 5-10 μg/well total protein per well. Samples from each set were assayed on the same plate. […] The signals obtained are not normalized to any housekeeping tissue factor, which may serve to improve animal-to-animal reproducibility, but are normalized to total lysate protein.
Samples that were not treated with drug are designated as (−) and those treated with drug as (+).

A498 xenograft = assay: Biomarker levels in A498 RCC xenograft tumor extracts (MSD multiplex immunoassay); type: in vivo, mice; conditions: A498, sunitinib
Procedure: as §1
as §2, with “Titrations of tumor extracts were carried out to determine the linearity of the assay response to sample dilution and to select the sample dilution that would be appropriate to use for each assay panel.” left out

## CCN(CC)CCNC(=O)c1c(C)[nH]c(/C=C2\C(=O)Nc3ccc(F)cc32)c1C [sunitinib]
VEGF
  plasma VEGF levels: significantly higher levels of VEGF
786-0 xenograft; 786-0, sunitinib
  change in E-cadherin levels with treatment: decreased further
786-0 xenograft; 786-0, treated vs untreated
  change in VEGF levels with treatment: increased levels of VEGF
786-0 xenograft; 786-0 tumors, sunitinib
  change in phospho-Akt levels with treatment: unchanged phospho-Akt levels
  change in total Akt levels with treatment: reduced levels of total Akt
786-0 xenograft; 786-0 tumors, sunitinib, phospho-Akt relative to total Akt
  net effect on relative phospho-Akt levels: increased relative phospho-Akt levels
A498 xenograft
  change in E-cadherin levels with treatment: decreased further
  change in inactive phospho-GSK3β level with treatment: increased level of inactive phospho-GSK3β
